This test addresses T1, HA-SRFR1 (SUPPRESSOR OF rps4-RLD1, HA-tagged, genomic clone) (Arabidopsis thaliana) (UniProt F4JS25).
T1 sequence: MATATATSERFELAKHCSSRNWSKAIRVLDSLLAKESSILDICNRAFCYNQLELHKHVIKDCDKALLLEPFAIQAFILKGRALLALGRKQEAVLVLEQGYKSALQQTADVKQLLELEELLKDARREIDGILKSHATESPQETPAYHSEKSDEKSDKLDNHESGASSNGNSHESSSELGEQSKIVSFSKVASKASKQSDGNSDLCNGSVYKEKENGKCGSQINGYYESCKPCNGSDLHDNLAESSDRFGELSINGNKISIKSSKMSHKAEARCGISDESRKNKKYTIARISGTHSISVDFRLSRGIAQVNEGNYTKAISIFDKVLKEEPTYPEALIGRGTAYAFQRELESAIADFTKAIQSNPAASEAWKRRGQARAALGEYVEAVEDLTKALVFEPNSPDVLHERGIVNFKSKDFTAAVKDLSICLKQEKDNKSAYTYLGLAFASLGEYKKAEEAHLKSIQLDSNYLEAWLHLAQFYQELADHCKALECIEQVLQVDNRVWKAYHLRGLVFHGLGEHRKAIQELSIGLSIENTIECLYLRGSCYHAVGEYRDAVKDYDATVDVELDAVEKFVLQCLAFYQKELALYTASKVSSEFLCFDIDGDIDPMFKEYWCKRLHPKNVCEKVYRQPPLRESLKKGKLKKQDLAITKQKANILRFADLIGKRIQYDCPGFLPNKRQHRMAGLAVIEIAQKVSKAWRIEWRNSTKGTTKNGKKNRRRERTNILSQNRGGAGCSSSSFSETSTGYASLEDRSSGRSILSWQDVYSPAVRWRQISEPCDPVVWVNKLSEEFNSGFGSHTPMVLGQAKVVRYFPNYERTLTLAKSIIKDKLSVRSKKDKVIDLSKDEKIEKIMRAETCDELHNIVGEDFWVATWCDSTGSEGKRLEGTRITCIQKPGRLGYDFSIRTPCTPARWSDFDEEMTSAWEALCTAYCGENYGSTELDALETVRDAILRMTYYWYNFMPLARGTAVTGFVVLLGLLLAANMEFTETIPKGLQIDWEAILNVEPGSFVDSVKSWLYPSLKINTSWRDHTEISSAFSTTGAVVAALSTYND
Kind of test: co-IP; soluble fraction (100,000 x g supernatant) of HA-SRFR1 transgenic N. benthamiana leaves 48 h after agroinfiltration of the Myc-tagged proteins; 0.2% Igepal CA-630; overnight with anti-HA or anti-Myc agarose beads; immunoblot. For orientation: Immunoblotting shows a protein as a band on a membrane.

The text below walks through data of publication PMC2973837.

These are yes or no findings as the source states them, for the method shown. In cells and extracts the contact can be indirect. Tags and fused reporters may be left off the sequences shown.

In the case of GAPDH (enzyme), the binding result is recorded as “no binding”.
